No constants are given. Whether binding was seen depends on the method and setting. Binding seen in cells or lysates may run through a third protein. Some results given as binding are weak or reduced against the parent protein; the word gives no strength.
Target: Toll-like Receptor 2 (mouse (endogenous in BALB/c splenic CD8+ T-cells)) (UniProt Q9QUN7)
Assay: co-IP; lysates of purified mouse CD8+ T-cells (stimulated with plate-bound anti-CD3ε and CD28, control siRNA or TLR2 siRNA, with or without Ara-LAM 3 μg/mL for 24 hr); precipitated with anti-TLR2 or anti-MyD88 antibody, captured on Protein A-agarose, blots probed with anti-MyD88 or anti-IRAK1

The chains behind the UniProt entries cited, without tags or fusion partners. Residues count along the entry.
UniProt Q9QUN7, residues 25-784: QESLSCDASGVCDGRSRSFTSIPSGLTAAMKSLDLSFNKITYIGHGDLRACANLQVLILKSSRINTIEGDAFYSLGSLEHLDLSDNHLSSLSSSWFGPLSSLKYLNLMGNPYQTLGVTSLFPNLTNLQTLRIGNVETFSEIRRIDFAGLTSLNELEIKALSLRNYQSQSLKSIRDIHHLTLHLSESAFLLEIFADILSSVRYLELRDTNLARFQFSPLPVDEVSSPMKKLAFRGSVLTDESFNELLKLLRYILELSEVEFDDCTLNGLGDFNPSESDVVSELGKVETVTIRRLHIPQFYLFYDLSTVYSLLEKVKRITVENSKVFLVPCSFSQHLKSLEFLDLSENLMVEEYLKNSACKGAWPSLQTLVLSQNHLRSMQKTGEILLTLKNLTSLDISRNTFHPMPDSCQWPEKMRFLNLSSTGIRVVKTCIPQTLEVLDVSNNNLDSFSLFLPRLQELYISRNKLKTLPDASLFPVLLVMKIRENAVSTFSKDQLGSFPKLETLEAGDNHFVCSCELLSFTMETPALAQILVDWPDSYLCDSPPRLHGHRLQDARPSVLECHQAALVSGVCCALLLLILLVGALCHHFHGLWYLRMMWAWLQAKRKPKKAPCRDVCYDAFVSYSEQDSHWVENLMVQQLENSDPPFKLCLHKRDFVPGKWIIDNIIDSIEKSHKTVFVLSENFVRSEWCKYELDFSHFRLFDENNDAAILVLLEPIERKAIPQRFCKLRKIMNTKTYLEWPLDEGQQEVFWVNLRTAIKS
UniProt P22366: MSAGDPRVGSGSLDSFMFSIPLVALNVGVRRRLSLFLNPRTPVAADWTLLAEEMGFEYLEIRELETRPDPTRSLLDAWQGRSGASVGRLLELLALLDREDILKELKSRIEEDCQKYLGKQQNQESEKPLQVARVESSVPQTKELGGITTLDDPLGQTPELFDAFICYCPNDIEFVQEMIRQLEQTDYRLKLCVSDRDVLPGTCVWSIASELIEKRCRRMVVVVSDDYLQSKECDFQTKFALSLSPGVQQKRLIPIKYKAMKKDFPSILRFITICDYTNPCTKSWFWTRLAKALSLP

- binding: binds
Substance: MyD88 (from UniProt P22366 1-296)

Source: article PMC4641719
